One substance from paper PMC10115834 can be followed below.

By UniProt entry, the sequences of proteins in these tests, tags left out.
UniProt P35222: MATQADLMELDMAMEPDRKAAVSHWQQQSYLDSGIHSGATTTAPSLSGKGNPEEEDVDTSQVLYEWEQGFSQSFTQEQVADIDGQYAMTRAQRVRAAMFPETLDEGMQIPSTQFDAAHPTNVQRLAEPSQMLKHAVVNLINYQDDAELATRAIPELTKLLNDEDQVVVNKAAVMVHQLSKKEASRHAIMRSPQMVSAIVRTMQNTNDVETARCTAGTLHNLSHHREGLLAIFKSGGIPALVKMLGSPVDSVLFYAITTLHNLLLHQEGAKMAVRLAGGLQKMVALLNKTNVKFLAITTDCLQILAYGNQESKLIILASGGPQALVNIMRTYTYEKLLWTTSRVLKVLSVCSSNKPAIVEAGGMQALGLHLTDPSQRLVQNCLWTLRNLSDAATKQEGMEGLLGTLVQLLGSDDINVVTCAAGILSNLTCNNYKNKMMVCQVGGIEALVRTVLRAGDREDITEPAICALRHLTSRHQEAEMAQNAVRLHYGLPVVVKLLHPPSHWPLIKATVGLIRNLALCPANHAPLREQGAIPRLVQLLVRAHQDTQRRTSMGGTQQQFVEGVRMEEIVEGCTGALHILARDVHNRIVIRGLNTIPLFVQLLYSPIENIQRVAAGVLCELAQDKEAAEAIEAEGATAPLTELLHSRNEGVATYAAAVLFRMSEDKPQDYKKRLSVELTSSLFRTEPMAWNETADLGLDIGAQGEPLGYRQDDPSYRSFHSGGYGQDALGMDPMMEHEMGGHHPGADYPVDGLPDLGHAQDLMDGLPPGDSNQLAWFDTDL
UniProt Q9Y265: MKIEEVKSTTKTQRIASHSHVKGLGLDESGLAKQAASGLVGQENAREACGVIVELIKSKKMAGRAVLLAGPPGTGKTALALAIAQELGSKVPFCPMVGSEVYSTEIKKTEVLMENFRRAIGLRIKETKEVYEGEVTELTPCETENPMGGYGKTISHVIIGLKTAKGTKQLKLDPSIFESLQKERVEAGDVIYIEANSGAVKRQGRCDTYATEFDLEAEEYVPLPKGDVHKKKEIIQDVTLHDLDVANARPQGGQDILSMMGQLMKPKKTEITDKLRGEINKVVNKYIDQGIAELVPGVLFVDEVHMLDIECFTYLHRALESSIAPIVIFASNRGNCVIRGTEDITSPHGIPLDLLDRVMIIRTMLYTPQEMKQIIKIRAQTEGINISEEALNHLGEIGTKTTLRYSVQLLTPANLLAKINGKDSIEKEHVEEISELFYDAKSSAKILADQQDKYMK

The experiment deals with β-catenin1 (CTNNB1) (UniProt P35222). Briefly: co-IP; lysate of transfected cells (50 mM Tris-HCl pH 7.4, 150 mM NaCl, 10% glycerol, 1 mM EDTA, 0.5% NP-40); antibody and protein A/G beads for 2 h, three washes, immunoblot; RUVBL1 or CTNNB1 precipitated with anti-his or anti-Flag.

Results are given in words; binding and its absence hold for the method and conditions named. In cells and extracts the contact can be indirect. Some results given as binding are weak or reduced against the parent protein; the word gives no strength.

For “RuvB-like protein 1 (RUVBL1) (from UniProt Q9Y265 1-456)”, the binding result was “binds”.
